Measured values reported in patent US4703107A (priority 1983, dated 1987).
HELM strings list residues between dots; [ac] is acetyl, [am] amide, other brackets name non-standard units.

Experiment: general procedure: peptide synthesis; dicyclohexylcarbodiimide / 1-hydroxybenzotriazole
Settings: conjugation step

PHA-Gly-L-Pro-L-Ala-Gly-L-Pro-AEC
conjugation yield: 60%

PHA-L-Pro-L-Ala-Gly-L-Pro-AEC
conjugation yield: 60%

PEPTIDE1{[GlcA].A.A.P.A.[AEC]}$$$$V2.0
conjugation yield: 80%

PHA-L-Ala-L-Ala-L-Pro-L-Val-AEC
conjugation yield: 80%
